According to patent publication US20120114590A1 (priority 2005, published 2012):
Some entries share one result that the patent states for a list of compounds.

Experiments:
[1] = test system: HBV; test: HBV replication in WT10 cells (TaqMan PCR extracellular HBV DNA); format: cell-based, hepatitis B virus; conditions: six days
[2] = test system: HHV-8; test: HHV-8 replication in BCBL-1 cells (TaqMan PCR extracellular HHV-8 DNA; dye uptake TC50); format: cell-based, human herpesvirus-8; conditions: six days
Method: The therapeutic index (TI) is calculated as TC50/IC50.

[3] = test system: HSV-2; test: HSV-2 inhibition of cytopathic effect assay in Vero cells; format: cell-based, Herpes Simplex Virus-2; conditions: CPE assay
Method: The assay involves the killing of Vero cells by the cytopathic HSV-2 virus and the inhibition of cell killing by IL-28 and EL-29. The Vero cells are propagated in Dulbecco's modified essential medium (DMEM) containing phenol red with 10% horse serum, 1% glutamine and 1% penicillin-streptomycin, while the CPE inhibition assays are performed in DMEM without phenol red with 2% FBS, 1% glutamine and 1% Pen-Strep. On the day preceding the assays, cells were trypsinized (1% trypsin-EDTA), washed, counted and plated out at 10^4 cells/well in a 96-well flat-bottom BioCoat® plates (Fisher Scientific, Pittsburgh, Pa.) in a volume of 100 μl/well. The next morning, the medium was removed and a pre-titered aliquot of virus was added to the cells. The amount of virus used is the maximum dilution that would yield complete cell killing (>80%) at the time of maximal CPE development. Cell viability is determined using a CellTiter 96® reagent (Promega) according to the manufacturer's protocol, using a Vmax plate reader (Molecular Devices, Sunnyvale, Calif.). Compounds are tested at six concentrations each, diluted in assay medium in a half-log series. Acyclovir was used as a positive control. […] The average background and drug color-corrected data for percent CPE reduction and percent cell viability at each concentration are determined relative to controls and the IC50 calculated relative to the TC50.

Molecule	IC50 (HepB viral replication, extracellular HBV DNA) [1]	TC50 (cell viability) [2]	IC50 (inhibition of cell death by HSV-2) [3]
IL-29: human IL-29 cytokine polypeptide (zcyto21), e.g. SEQ ID NO:20 (protein, listed as Homo sapiens, SIGNAL (1)...(19)) MAAAWTVVLVTLVLGLAVAGPVPTSKPTTTGKGCHIGRFKSLSPQELASFKKARDALEESLKLKNWSCSSPVFPGNWDLRLLQVRERPVALEAELALTLKVLEAAAGPALEDVLDQPLHTLHHILSQLQACIQPQPTAGPRPRGRLHHWLHRLQEAPKKESAGCLEASVTFNLFRLLTRDLKYVADGNLCLRTSTHPEST	< 0.032 µg/mL	> 10 µg/mL	> 10 µg/mL
IL-28A: human IL-28A cytokine polypeptide (zcyto20), e.g. SEQ ID NO:18; CHO-derived in Examples 16 and 18 (protein, listed as Homo sapiens, SIGNAL (1)...(25)) MKLDMTGDCTPVLVLMAAVLTVTGAVPVARLHGALPDARGCHIAQFKSLSPQELQAFKRAKDALEESLLLKDCRCHSRLFPRTWDLRQLQVRERPMALEAELALTLKVLEATADTDPALVDVLDQPLHTLHHILSQFRACIQPQPTAGPRTRGRLHHWLYRLQEAPKKESPGCLEASVTFNLFRLLTRDLNCVASGDLCV	–	> 10 µg/mL	> 10 µg/mL
